Here are results for 2 molecules from publication doi:10.1101/2022.05.09.491207.

Sequences of proteins named here, by UniProt entry; tags and fusion partners are left off.
UniProt Q01082: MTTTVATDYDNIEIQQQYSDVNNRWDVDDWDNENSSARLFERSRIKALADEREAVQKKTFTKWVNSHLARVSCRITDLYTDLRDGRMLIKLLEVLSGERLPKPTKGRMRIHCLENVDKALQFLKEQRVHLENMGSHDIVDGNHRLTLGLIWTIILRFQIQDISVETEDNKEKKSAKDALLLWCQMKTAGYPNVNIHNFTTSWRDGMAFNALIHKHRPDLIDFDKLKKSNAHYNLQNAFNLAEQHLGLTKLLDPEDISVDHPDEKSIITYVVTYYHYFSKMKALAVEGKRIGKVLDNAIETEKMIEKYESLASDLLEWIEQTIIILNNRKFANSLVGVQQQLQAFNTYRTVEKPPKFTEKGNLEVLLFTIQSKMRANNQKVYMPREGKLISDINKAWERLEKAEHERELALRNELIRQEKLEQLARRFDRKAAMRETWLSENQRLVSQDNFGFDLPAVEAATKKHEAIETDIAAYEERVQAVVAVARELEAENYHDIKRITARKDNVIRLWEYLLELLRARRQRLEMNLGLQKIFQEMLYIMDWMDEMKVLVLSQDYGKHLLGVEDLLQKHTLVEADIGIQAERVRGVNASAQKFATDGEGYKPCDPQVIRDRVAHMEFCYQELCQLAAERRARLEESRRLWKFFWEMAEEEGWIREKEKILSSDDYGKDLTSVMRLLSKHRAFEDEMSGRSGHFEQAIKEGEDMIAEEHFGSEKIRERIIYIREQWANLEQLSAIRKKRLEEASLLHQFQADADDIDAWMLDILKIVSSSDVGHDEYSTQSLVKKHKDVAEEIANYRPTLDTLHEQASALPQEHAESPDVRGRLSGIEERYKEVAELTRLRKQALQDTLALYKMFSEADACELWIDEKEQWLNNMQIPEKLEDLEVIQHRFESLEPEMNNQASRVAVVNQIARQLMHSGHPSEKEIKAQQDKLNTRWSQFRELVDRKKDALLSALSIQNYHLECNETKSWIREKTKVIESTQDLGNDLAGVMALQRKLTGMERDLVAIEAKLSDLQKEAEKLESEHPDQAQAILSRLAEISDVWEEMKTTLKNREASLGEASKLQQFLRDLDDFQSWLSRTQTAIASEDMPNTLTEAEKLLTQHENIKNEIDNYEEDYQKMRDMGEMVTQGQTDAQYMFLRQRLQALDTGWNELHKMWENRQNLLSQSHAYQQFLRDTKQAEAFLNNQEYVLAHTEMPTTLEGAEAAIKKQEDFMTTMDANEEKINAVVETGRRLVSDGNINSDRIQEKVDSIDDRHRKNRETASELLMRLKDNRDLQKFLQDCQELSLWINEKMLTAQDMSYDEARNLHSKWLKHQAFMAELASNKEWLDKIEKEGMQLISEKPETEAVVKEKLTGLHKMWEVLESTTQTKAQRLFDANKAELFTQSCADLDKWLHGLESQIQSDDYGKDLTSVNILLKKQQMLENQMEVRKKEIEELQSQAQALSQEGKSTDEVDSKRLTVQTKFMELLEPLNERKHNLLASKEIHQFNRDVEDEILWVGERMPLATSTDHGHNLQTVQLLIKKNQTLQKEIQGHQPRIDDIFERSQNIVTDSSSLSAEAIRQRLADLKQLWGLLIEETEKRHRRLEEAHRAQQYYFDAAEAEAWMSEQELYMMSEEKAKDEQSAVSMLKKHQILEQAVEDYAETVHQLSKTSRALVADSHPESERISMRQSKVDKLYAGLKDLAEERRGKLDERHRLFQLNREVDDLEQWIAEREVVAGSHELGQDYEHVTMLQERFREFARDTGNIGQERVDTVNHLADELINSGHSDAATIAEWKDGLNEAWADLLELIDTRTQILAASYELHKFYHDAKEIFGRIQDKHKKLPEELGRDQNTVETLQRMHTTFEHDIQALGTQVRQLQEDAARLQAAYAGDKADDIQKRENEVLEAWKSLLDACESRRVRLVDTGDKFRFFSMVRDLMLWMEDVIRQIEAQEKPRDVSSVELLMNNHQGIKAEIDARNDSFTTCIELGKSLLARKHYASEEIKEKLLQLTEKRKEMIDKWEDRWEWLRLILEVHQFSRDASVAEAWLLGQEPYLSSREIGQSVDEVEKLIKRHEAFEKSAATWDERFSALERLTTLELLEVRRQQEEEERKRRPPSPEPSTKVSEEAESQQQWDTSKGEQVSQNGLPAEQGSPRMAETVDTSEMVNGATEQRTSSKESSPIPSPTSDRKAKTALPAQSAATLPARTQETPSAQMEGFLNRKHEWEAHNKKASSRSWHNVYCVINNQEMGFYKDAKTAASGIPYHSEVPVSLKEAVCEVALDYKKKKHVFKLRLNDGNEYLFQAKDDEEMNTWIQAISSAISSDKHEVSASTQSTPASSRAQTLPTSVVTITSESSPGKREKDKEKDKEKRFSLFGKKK
UniProt Q9UIL1: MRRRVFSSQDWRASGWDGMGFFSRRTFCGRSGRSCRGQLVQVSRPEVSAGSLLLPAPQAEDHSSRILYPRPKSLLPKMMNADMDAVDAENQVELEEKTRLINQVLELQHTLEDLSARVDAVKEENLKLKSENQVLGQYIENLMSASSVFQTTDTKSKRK

These are yes or no findings as the source states them, for the method shown. Binding seen in cells or lysates may run through a third protein. Some results given as binding are weak or reduced against the parent protein; the word gives no strength.

For the assay, the target named is SPTBN1::GFP (human βII spectrin fused to eGFP) (human) (UniProt Q01082). Description: co-IP.

For HALO::SCOC (from UniProt Q9UIL1 1-159), the binding entry was “binds”.

B1: mCherry::FEZ1 (protein, UniProt Q99689 1-392)
chain: MEAPLVSLDEEFEDLRPSCSEDPEEKPQCFYGSSPHHLEDPSLSELENFSSEIISFKSMEDLVNEFDEKLNVCFRNYNAKTENLAPVKNQLQIQEEEETLQDEEVWDALTDNYIPSLSEDWRDPNIEALNGNCSDTEIHEKEEEEFNEKSENDSGINEEPLLTADQVIEEIEEMMQNSPDPEEEEEVLEEEDGGETSSQADSVLLQEMQALTQTFNNNWSYEGLRHMSGSELTELLDQVEGAIRDFSEELVQQLARRDELEFEKEVKNSFITVLIEVQNKQKEQRELMKKRRKEKGLSLQSSRIEKGNQMPLKRFSMEGISNILQSGIRQTFGSSGTDKQYLNTVIPYEKKASPPSVEDLQMLTNILFAMKEDNEKVPTLLTDYILKVLCPT
In the case of B1, the binding result is recorded as “binds”.
